Results on 1 molecule are retold here after patent publication US8399520B2, “Selective estrogen receptor modulator” (Eisai R&D Management Co., Ltd., priority 2002, dated 2013).

The subject of the assay is MCF-7 breast cancer cells. Description: MCF-7 growth analysis (estrogen agonist and antagonist activity, MTT assay). In kind it is cell-based. As to conditions: Homo sapiens, MCF7, MCF-7 growth with 17β-estradiol (10 pM) present simultaneously, 72 hours. On the procedure:
Test Example 2 determines the estrogen agonist and antagonist activities of the compound according to the present invention in reproduction system cells. […] The present test was carried out according to the following procedures. MCF-7 breast cancer cells were cultured in the preservation medium until the compound evaluation. The preservation medium is the MEM (minimum essential medium, phenol red-free, Gibco, ##51200-038) supplemented with 10% (volume/volume) fetal bovine serum (FBS), 2 mM L-glutamine, 1 mM sodium pyruvate, non-essential amino acids (0.1 mM, Gibco, #15240-062), and antibiotic-antimycotic solution ( 1/50 of culture medium volume, Gibco). Five days prior to analysis, the preservation medium was exchanged with analytical medium to which 10% charcoal-stripped fetal bovine serum (charcoal-FBS) was added instead of 10% FBS, so as to deprive the MCF-7 cells of endogenous steroids. Twenty-four hours after exchange to the analytical medium, the MCF-7 cells were removed from the preservation flask using cell isolation medium (trypsin-EDTA solution, Gibco). The cells were washed with analytical medium once, and cell suspension at 50,000 cell/ml was prepared using the analytical medium. […] For each well of the microculture, the optical density at 590 nm due to the dissolved formazan crystals was measured. […]
On the technique in general: Tetrazolium assays rely on reduction of a dye to a coloured formazan, in cell work by metabolically active cells.

Each structure is given as a SMILES string.

As usually defined, the IC50 is the concentration at which inhibition is half-maximal.

Molecule `CC/C(=C(\c1ccccc1)c1ccc(OCCN(C)C)cc1)c1ccccc1` [Comparative Example, Tamoxifen, reference compound] gave an IC50 of 86.1 nM.
